Paper PMC6459796
No constants are given. Whether binding was seen depends on the method and setting. For part of these data: In cells and extracts the contact can be indirect. Some results given as binding are weak or reduced against the parent protein; the word gives no strength. Where a sequence is shown, tags or fusion partners need not be part of it. Values belong to the molecule of their own block, whether it stands above or below them.

Sequences of proteins named here, by UniProt entry; tags and fusion partners are left off.
UniProt Q15910: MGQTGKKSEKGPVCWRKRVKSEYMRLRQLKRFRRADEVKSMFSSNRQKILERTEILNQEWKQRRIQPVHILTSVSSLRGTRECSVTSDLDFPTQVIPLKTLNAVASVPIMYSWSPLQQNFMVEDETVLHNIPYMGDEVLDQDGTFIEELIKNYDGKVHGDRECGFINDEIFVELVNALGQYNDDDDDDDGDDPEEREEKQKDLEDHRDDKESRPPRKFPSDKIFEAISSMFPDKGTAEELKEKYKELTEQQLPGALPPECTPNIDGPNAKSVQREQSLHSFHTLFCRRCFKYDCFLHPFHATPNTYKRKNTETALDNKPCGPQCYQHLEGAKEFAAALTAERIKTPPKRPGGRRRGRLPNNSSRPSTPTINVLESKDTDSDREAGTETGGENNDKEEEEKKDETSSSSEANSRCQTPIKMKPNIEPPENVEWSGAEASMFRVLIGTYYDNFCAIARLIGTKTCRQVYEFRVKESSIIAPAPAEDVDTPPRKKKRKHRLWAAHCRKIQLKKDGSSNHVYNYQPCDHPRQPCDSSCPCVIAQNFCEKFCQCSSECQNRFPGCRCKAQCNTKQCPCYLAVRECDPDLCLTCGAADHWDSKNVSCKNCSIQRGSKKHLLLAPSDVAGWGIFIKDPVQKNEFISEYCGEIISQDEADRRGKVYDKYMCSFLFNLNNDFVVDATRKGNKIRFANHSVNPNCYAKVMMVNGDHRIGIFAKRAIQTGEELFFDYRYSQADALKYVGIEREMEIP
UniProt O15054: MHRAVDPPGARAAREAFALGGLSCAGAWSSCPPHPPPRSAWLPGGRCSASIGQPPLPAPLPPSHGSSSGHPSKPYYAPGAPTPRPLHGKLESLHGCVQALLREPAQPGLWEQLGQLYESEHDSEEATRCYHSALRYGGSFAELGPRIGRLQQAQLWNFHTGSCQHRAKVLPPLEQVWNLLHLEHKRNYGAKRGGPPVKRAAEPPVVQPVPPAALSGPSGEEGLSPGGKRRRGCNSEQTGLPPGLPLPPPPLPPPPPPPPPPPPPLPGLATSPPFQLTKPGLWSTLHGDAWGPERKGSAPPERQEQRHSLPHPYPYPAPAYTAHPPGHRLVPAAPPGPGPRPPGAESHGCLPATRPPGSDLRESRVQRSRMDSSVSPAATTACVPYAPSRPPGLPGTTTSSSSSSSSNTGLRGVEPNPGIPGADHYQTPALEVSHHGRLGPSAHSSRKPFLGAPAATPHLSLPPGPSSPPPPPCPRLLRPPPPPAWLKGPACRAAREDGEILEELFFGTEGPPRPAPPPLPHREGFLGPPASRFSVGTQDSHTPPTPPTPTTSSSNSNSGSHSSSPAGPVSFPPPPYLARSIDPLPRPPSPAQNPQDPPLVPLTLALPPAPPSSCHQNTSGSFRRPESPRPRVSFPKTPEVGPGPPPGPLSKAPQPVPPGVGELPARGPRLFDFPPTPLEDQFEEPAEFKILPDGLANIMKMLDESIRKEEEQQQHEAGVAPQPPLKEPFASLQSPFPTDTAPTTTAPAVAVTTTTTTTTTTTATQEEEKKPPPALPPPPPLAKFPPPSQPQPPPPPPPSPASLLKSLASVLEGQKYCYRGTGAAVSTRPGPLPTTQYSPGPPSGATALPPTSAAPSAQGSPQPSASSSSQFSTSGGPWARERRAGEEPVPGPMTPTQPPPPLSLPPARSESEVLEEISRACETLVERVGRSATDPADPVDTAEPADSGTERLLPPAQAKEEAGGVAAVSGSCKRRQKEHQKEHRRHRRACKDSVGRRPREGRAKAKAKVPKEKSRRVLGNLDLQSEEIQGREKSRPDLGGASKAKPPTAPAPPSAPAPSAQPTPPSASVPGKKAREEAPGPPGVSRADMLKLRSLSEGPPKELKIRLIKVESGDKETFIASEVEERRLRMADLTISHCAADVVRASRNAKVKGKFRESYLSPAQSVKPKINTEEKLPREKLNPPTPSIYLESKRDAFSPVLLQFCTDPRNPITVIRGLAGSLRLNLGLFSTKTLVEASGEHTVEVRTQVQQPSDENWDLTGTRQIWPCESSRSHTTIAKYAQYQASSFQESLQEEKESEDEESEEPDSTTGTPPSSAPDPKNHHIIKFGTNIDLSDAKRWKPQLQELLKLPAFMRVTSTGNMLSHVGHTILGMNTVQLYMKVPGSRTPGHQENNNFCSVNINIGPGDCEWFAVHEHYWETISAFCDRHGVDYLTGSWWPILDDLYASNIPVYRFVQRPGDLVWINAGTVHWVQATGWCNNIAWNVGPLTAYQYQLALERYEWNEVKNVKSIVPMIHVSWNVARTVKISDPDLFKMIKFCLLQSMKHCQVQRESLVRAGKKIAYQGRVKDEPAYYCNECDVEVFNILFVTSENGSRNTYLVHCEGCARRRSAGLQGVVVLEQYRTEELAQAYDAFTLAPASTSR
UniProt Q09028: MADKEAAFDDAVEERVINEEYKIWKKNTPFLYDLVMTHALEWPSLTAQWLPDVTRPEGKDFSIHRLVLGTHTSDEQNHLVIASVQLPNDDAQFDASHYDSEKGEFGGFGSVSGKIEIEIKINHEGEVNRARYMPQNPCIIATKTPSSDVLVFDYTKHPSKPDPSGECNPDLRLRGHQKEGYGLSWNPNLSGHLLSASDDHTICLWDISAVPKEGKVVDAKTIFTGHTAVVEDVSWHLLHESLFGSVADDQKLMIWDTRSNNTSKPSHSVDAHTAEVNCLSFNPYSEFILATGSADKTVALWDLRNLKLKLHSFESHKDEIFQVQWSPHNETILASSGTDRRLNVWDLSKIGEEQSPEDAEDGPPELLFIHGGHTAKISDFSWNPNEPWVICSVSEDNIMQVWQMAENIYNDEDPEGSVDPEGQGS

Tests used:
[1] = target: T1, GST-tagged TSPYL2 (testis-specific protein, Y-encoded-like 2) (UniProt Q9H2G4); experiment: pull-down; GST-TSPYL2 on Glutathione Sepharose 4B beads; 150 μg nuclear lysate of HEK293 cells (non-transfected, Flag-UTX- or Flag-JMJD3-transfected); 3 h at 4 °C with rotation; washed four times with IP buffer; western blot; only the target purified
T1 sequence: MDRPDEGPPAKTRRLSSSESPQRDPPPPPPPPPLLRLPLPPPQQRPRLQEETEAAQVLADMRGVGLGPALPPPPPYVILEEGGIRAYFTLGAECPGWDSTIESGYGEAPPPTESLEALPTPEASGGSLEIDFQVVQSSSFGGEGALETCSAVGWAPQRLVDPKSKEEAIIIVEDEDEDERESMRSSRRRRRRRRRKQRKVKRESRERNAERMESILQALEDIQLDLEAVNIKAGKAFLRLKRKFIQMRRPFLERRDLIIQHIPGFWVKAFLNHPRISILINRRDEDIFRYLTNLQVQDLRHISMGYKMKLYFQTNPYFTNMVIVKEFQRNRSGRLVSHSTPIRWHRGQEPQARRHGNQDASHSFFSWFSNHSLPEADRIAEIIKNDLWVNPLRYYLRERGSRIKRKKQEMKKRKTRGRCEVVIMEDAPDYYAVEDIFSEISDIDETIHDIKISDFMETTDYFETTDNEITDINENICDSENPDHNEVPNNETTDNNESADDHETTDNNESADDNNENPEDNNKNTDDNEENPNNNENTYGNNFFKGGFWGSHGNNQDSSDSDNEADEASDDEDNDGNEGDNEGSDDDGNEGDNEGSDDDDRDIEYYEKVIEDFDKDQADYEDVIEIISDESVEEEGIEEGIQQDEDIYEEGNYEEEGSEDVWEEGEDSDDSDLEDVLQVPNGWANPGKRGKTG

[2] = target: T1, GST-tagged TSPYL2 (testis-specific protein, Y-encoded-like 2); experiment: pull-down; pull-down assay using HEK293 cells; data not shown; only the target purified
[3] = target: EZH2 of the bought EZH2 complex (EZH2, EED, SUZ12, RbAp48, and AEBP2) (UniProt Q15910); experiment: far-Western, overlay or dot blot; EZH2 complex (0.2 μg per well) separated on a 7.5% polyacrylamide gel and transferred to nitrocellulose; strips incubated with 2-μg GST-TSPYL2 or 0.6-μg GST in 5-ml TBST with 3% BSA overnight at 4 °C; probed by GST antibody; parallel strip probed with anti-EZH2; both purified

- binding [1]: binds weakly
Molecule: Flag-JMJD3 (from UniProt O15054 1-1643) (enzyme)

- binding [2]: binds weakly
Molecule: RbAp48 (from UniProt Q09028 1-425)

- binding [3]: binds
B1: GST-tagged TSPYL2 (testis-specific protein, Y-encoded-like 2) (protein, UniProt Q9H2G4 1-693)
chain: MDRPDEGPPAKTRRLSSSESPQRDPPPPPPPPPLLRLPLPPPQQRPRLQEETEAAQVLADMRGVGLGPALPPPPPYVILEEGGIRAYFTLGAECPGWDSTIESGYGEAPPPTESLEALPTPEASGGSLEIDFQVVQSSSFGGEGALETCSAVGWAPQRLVDPKSKEEAIIIVEDEDEDERESMRSSRRRRRRRRRKQRKVKRESRERNAERMESILQALEDIQLDLEAVNIKAGKAFLRLKRKFIQMRRPFLERRDLIIQHIPGFWVKAFLNHPRISILINRRDEDIFRYLTNLQVQDLRHISMGYKMKLYFQTNPYFTNMVIVKEFQRNRSGRLVSHSTPIRWHRGQEPQARRHGNQDASHSFFSWFSNHSLPEADRIAEIIKNDLWVNPLRYYLRERGSRIKRKKQEMKKRKTRGRCEVVIMEDAPDYYAVEDIFSEISDIDETIHDIKISDFMETTDYFETTDNEITDINENICDSENPDHNEVPNNETTDNNESADDHETTDNNESADDNNENPEDNNKNTDDNEENPNNNENTYGNNFFKGGFWGSHGNNQDSSDSDNEADEASDDEDNDGNEGDNEGSDDDGNEGDNEGSDDDDRDIEYYEKVIEDFDKDQADYEDVIEIISDESVEEEGIEEGIQQDEDIYEEGNYEEEGSEDVWEEGEDSDDSDLEDVLQVPNGWANPGKRGKTG
